{
  "source": "patent US4481139A",
  "about": "(Board of Regents, The University of Texas System, priority 1983, dated 1984)",
  "key": {"[1]": {"assay": "general procedure: Boc solid-phase peptide synthesis; DCC", "settings": "whole synthesis, HPLC"}, "[2]": {"assay": "general procedure: Boc solid-phase peptide synthesis; amine resin, 0.75 mM NH2/g; DCC", "settings": "whole synthesis, 206 nm, scale of the general procedure 1 g resin"}},
  "note": "Strings that start with PEPTIDE1 are HELM notation: dots part the residues, brackets hold end groups and non-standard residues.",
  "data": [
    {"substance": "PEPTIDE1{[dR].[dP].K.P.Q.Q.[dW].F.[dW].L.L.[am]}$$$$V2.0", "values": [
      {"measurement": "purity (crude or final not stated)", "setting": "[1]", "result": 96, "unit": "%"}
    ]},
    {"substance": "PEPTIDE1{R.[dP].K.P.Q.Q.[dW].F.[dW].L.L.[am]}$$$$V2.0", "values": [
      {"measurement": "purity (crude or final not stated)", "setting": "[1]", "result": 95, "unit": "%"}
    ]},
    {"substance": "[D-Arg^1,D-Trp^7 ,D-Trp^9,Ile^11 ]--SP", "values": [
      {"measurement": "purity (crude or final not stated)", "setting": "[1]", "result": 97, "unit": "%"}
    ]},
    {"substance": "PEPTIDE1{[dR].[dP].K.P.Q.Q.[dW].F.[dW].L.T.[am]}$$$$V2.0", "values": [
      {"measurement": "purity (crude or final not stated)", "setting": "[1]", "result": 96, "unit": "%"}
    ]},
    {"substance": "[D-Phe^5,D-Trp^7,D-Trp^9,Leu^11 ]-SP5-11", "values": [
      {"measurement": "purity (crude or final not stated)", "setting": "[1]", "result": 98, "unit": "%"}
    ]},
    {"substance": "PEPTIDE1{[dR].P.K.P.Q.Q.[dW].F.[dW].L.L.[am]}$$$$V2.0", "values": [
      {"measurement": "final HPLC purity", "setting": "[2]", "result": 98, "unit": "%"},
      {"measurement": "purity (crude or final not stated)", "setting": "[1]", "result": 98, "unit": "%"}
    ]},
    {"substance": "PEPTIDE1{[dR].[dP].K.P.[dF].Q.[dW].F.[dW].L.L.[am]}$$$$V2.0", "values": [
      {"measurement": "purity (crude or final not stated)", "setting": "[1]", "result": 97, "unit": "%"}
    ]},
    {"substance": "PEPTIDE1{R.P.K.P.Q.Q.[dW].F.[dW].L.L.[am]}$$$$V2.0", "values": [
      {"measurement": "purity (crude or final not stated)", "setting": "[1]", "result": 97, "unit": "%"}
    ]}
  ]
}
